The values that follow come from article PMC4808012.

Chains of the proteins cited; added tags and fusions are not shown. Residues count along the entry.
UniProt P21860, residues 20-1342: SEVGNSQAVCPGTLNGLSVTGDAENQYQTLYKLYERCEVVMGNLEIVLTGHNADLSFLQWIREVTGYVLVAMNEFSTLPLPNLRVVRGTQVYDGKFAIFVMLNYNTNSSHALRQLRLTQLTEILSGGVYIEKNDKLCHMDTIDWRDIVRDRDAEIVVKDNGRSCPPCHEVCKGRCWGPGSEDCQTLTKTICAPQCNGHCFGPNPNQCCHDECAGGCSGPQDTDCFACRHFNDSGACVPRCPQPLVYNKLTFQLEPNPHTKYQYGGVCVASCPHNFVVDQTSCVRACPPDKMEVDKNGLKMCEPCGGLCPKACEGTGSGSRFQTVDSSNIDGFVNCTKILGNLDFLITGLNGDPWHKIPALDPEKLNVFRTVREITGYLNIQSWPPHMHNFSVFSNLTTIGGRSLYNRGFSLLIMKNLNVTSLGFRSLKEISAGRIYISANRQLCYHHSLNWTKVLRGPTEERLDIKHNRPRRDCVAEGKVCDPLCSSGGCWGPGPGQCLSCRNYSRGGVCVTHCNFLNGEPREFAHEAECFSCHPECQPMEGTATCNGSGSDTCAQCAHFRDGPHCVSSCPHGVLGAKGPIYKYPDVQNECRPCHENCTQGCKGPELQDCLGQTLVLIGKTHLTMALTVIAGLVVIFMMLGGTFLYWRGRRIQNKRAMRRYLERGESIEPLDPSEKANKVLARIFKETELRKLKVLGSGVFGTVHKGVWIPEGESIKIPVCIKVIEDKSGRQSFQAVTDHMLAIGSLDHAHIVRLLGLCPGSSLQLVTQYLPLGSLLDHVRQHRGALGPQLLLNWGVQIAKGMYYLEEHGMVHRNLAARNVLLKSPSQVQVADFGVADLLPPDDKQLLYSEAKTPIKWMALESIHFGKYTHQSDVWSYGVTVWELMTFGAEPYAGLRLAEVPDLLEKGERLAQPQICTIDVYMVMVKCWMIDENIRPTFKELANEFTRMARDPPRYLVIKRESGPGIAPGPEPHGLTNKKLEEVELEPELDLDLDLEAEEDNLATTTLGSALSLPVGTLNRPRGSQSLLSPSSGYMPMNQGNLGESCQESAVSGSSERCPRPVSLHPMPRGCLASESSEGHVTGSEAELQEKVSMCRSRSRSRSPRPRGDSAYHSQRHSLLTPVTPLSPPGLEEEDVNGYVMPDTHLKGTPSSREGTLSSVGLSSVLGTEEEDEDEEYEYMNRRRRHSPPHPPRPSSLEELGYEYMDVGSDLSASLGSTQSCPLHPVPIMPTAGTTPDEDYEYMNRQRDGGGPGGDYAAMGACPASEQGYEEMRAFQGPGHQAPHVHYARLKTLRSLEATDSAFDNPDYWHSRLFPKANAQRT
UniProt P03165: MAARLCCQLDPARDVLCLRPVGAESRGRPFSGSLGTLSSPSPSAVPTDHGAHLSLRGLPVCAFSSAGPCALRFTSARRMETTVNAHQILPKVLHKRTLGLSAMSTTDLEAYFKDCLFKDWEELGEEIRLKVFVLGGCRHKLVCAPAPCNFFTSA

The target in test [1] is ErbB2, transfected into HEK293T cells (UniProt P04626). Put plainly: co-IP; HEK293T cells co-transfected with HBx and ErbB2 or ErbB3; total lysates, IP with anti-ErbB2 or anti-ErbB3, Western blot for HBx (Figure 5I, 5J). (A western blot detects proteins with antibodies after separation by electrophoresis.)
In test [2] the target is ErbB3, transfected into HEK293T cells (UniProt P21860). The test is described as above.

No constants are given. Whether binding was seen depends on the method and setting. Binding seen in cells or lysates may run through a third protein. Some results given as binding are weak or reduced against the parent protein; the word gives no strength.

For “HBV X protein (HBx) (from UniProt P03165 1-154)”, the binding entry in test [1] and in test [2] was “binds” in each case.
